From patent US20250134895A1, “METHODS AND COMPOSITIONS FOR TREATING ALPHA-SYNUCLEIN-MEDIATED NEURODEGENERATION” (UNIVERSITY HEALTH NETWORK, priority 2021, published 2025)
Some entries share one result that the patent states for a list of compounds.

Test system: H4 neuroglioma cells
Details: cells expressing α-synuclein, multiple concentrations
Description: For controls in this assay, vehicle (i.e., DMSO), rapamycin, and bafilomycin A were used. Rapamycin, or sirolimus, is a small molecule that activates autophagy by inhibiting mTOR (mammalian target of rapamycin). […] To test this possibility, cells expressing α-synuclein were treated with each of the compounds and a cell permeable, resazurin-based assay was used to test for cell viability.
H4 neuroglioma cells (ATCC, HTB-148) were maintained in Dulbecco's Modified Eagle Medium plus high glucose, L-glutamine, and sodium pyruvate (ThermoFisher, 11995-065) with 10% heat-inactivated fetal bovine serum (ThermoFisher, 16140071) and 1% antibiotic-antimycotic cocktail (ThermoFisher, 15240062) at 37° C. and 5% CO2. […] Following 24 hours of treatment, cells were washed 1 time with PBS and bioluminescence was measured using an automated CLARIOstar plate reader (Mandel, 430-0505). […] The bioluminescent signal generated by the luciferase enzyme was assessed at 470 nm over 5 seconds. Raw luminescence units were normalized to the DMSO vehicle control of each 96-well microplate. […] Fluorescence was automatically measured using a CLARIOstar plate reader (Mandel, 430-0505) and then normalized to the fluorescence measure of the DMSO vehicle control.

## Cn1c(=O)c2[nH]cnc2n(C)c1=O [Theophylline]
  reduced cell survival: > 15%
